Experimental data as given in patent US20250277029A1, “CANNABINOID TYPE 1 RECEPTOR BINDING PROTEINS AND USES THEREOF” (AMGEN INC., priority 2022, published 2025).
Substitutions are numbered along the chain they refer to. These are yes or no findings as the source states them, for the method shown. Some results given as binding are weak or reduced against the parent protein; the word gives no strength.

B1: LIBC523661-1 (antibody, IgG1, V domains shown)
VH: QVQLQESGPGLVKPSQTLSLTCTVSGGSIRRGGDYWSWIRQHPGKGLEWIGHIYYEGSTKYNPSFKGRATISVNTYKNQFSLKLSSVTAADTAVYYCARDYDPVTGHSYYYYGMDVWGQGTTVTVSS
VL: DIVMTQSPLSLPVTPGEPASISCRSSQSLLTSSGYNYVDWYLQKPGQSPQLLIYQGSNRASGVPDRFSGSGSGTDFTLKISRVEAEDVGVYYCRQARAIPRTFGQGTKVEIKR
B2: LIBC523868-1 (antibody, V domains shown)
VH: B1 VH with I53V, K60A, K66E, G67D, P103I, V104L, H107Y
VL: B1 VL with S33Y, Y35I, Q55L, R94M, A98Q
B3: LIBC523857-1 (antibody, V domains shown)
VH: B1 VH with Y55Q, E56T, S58Q, K60A, S64R, F65L, K66E, P103I, V104L, H107Y
VL: B1 VL with T31S, S33T, Y35A, V38L, Q55L, R97V, A98E, I99L
B4: LIBC527984-1 (antibody, V domains shown)
VH: B1 VH with Y55Q, E56T, S58K, K60N, S64N, G67S, P103I, V104L, H107Y
VL: DIQMTQSPSTLSASVGDRVTITCRASQSISNYLNWYQQKPGKAPKLLIYAASSLHSGVPSRFSGSGSGTDFTLTISSLQPEDFASYYCQQYQSYPLTFGQGTKVEIKR
B5: LIBC523670-1 (antibody, V domains shown)
VH: QVQLQESGPGLVKPSQTLSLTCTVSGGSIRRGGDYWAWIRQHPGKGLEWIGHVYQTGQTAYNPNLESRATISVNTYKNQFSLKLSSVTAADTAVYYCARNYDVLSGYSYYYYGMDVWGQGTTVTVSS
VL: B1 VL with S33Y, Y35A, V38L, R94M, R97L, A98Q
B6: LIBC523844-1 (antibody, V domains shown)
VH: B1 VH with I53V, E56T, G67D, P103I, V104L, H107Y
VL: B1 VL with T31S, Y35A, I99L
B7: LIBC523969-1 (antibody, V domains shown)
VH: B5 VH with A37S, V53I, A60K, E66K, S67G, N100D, V103I, S105T
VL: B1 VL with T31S, S33T, Y35A, V38L, R97V, A98G, I99L
B8: LIBC528131-1 (antibody, V domains shown)
VH: B5 VH with A37S, V53I, S67G, N100D, V103I, S105T
VL: EIVLTQSPATLSLSPGERATLSCRASQSVSSYLGWYQQKPGQAPRLLIYGASSRATGIPDRFSGSGSGTDFTLTISRLEPEDFAVYYCQQYGSSPRTFGQGTKVEIKR
B9: LIBC527814-1 (antibody, IgG1, V domains shown)
VH: B5 VH with A37G, Q58S, A60K, N64S, L65F, E66K, S67D, V103T, S105T
VL: B4 VL
B10: LIBC527997-1 (antibody, IgG1, V domains shown)
VH: B5 VH with V53I, Q58S, A60N, N64R, L65F, E66K, S67G, V103T, S105T
VL: B4 VL with T10S
B11: LIBC523813-1 (antibody, V domains shown)
VH: B5 VH with A37S, Q55Y, N64K, L65F, E66K, S67D, N74K, N100D, V103I, S105T
VL: B1 VL with T31S, Y35A, Q55L, R94M, A98G
B12: LIBC523815-1 (antibody, V domains shown)
VH: B1 VH with Y55Q, E56S, S58Q, F65L, G67D, P103I, V104L, H107Y
VL: B1 VL with Y35A, Q55L, A98E, I99Q
B13: LIBC527912-1 (antibody, V domains shown)
VH: B5 VH with A37S, H52Y, V53I, A60K, L65F, S67G, N100D, V103I, S105T
VL: B4 VL with M4L, T10S, N31S, H55R, S85T, Q92S, S93N, Q100G, K103R
B14: LIBC523862-1 (antibody, V domains shown)
VH: B1 VH with Y55Q, E56T, K60A, F65L, P103I, V104L, H107Y
VL: B1 VL with T31H, S33T, Y35A, Q55L, R97I, I99L
B15: LIBC523760-1 (antibody, V domains shown)
VH: B1 VH with I53V, Y55Q, E56T, S64K, P103I, V104L, H107Y
VL: B1 VL with Y35A, Q55L, R97V, A98G, I99T
B16: LIBC527879-1 (antibody, V domains shown)
VH: QVQLQESGPGLVKPSQTLSLTCTVSGGSIRRGGDYWGWIRQHPGKGLEWIGHIYQSGSTNYNPKLKSRATISVDTYKNQFSLKLSSVTAADTAVYYCARDYDIFTGYSYYYYGMDVWGQGTTVTVSS
VL: B4 VL with M4L, T10S, S30I, N31S, H55R, S85T, Q92S, S93N, Q100G, K103R
B17: LIBC527827-1 (antibody, V domains shown)
VH: B5 VH with A37G, T56S, N64K, L65F, S67N, N74K, V103T, S105T, Y107H
VL: B4 VL
B18: LIBC527919-1 (antibody, IgG1, V domains shown)
VH: B5 VH with Q58S, L65F, E66K, S67D, V103A
VL: B4 VL with M4L, T10S, S30I, N31S, H55R, S85T, Q92S, S93N, Q100G, K103R
B19: LIBC681593-1 (Fab, V domains shown)
VH: B5 VH with V53I, Q58S, A60N, N64R, L65F, E66K, S67G, V103T, S105T
VL: DIQMTQSPSSLSASVGDRVTITCRASQSISSYLNWYQQKPGKAPKLLIYNARRLGSGVPSRFSGSGSGTDFTLTISSLQPEDFATYYCQQYRSSPVTFGGGTKVEIKR
B20: LIBC673952-1 (Fab, V domains shown)
VH: B1 VH with I53V, E56T, S58Q, K60T, K66R, A69V, P103I, V104L, H107Y, M114L
VL: B1 VL with T31H, S32R, V38L, I99L
B21: LIBC680800-1 (Fab, V domains shown)
VH: B5 VH with V53I, Q58S, A60N, N64R, L65F, E66K, S67G, V103T, S105T
VL: B19 VL with N50S, R53A, G55S, S93K, S94F, V96L
B22: LIBC680562-1 (Fab, V domains shown)
VH: B5 VH with V53I, Q58S, A60N, N64R, L65F, E66K, S67G, V103T, S105T
VL: B19 VL with N50S, G55S, R92A, S93K, V96I
B23: LIBC674200-1 (Fab, V domains shown)
VH: QVQLQESGPGLVKPSQTLSLTCTVSGGSIRRGGDYWSWIRQHPGKGLEWIGHVYYTGQTAYNPNFRNRVRISVNTYKNQFSLKLSSVTAADTAVYYCARGYDVSGYSYYYYGMDVWGQGTTVTVSS
VL: B1 VL with T31H, S32R, V38L, Q55L, D65G, R94M, A96S, R97L, A98Q, I99T
B24: LIBC674229-1 (Fab, V domains shown)
VH: B23 VH with V53I, Y55Q, A60K, N64S, R66K, N67G
VL: B1 VL with T31H, S32R, V38L, R94M, A96S, R97L, A98Q, I99T
B25: LIBC680812-1 (Fab, V domains shown)
VH: B5 VH with A37G, Q58S, A60K, N64S, L65F, E66K, S67D, V103T, S105T
VL: B19 VL with N50S, G55S, S94Y, V96I
B26: LIBC681594-1 (Fab, V domains shown)
VH: B5 VH with V53I, Q58S, A60N, N64R, L65F, E66K, S67G, V103T, S105T
VL: B19 VL with N50K, R53K, G55S, Y91F, R92G, S94M, V96L
B27: LIBC680574-1 (Fab, V domains shown)
VH: B1 VH with S37A, I53V, E56T, G67D, D100N, P103T, V104L, H107Y
VL: B19 VL with N50G, R92S, S94L
B28: LIBC674090-1 (Fab, V domains shown)
VH: B23 VH with V53I, T56A, Q58S, N67G, V103T, M113L
VL: B1 VL with T31H, S32R, V38L, R94M, A96S, R97L, A98Q, I99T

target: GFP-fused huCB1-SMALP (human CB1 in styrene maleic acid lipoparticles) (human) (UniProt P21554); test: flow cytometry, yeast display

| binding | Binder |
| --- | --- |
| binds | B1 |
| binds | B2 |
| binds | B3 |
| binds | B4 |
| binds | B5 |
| binds | B6 |
| binds | B7 |
| binds | B8 |
| binds | B9 |
| binds | B10 |
| binds | B11 |
| binds | B12 |
| binds | B13 |
| binds | B14 |
| binds | B15 |
| binds | B16 |
| binds | B17 |
| binds | B18 |

target: GFP-fused huCB1-SMALP (human CB1 in styrene maleic acid lipoparticles) (human) (UniProt P21554); test: flow cytometry on IgG-displaying yeast, 100 nM GFP-fused huCB1-SMALP, GFP in BB515-A (y) vs AlexaFluor647 anti-huFab display in APC-A (x)

| binding | Binder |
| --- | --- |
| binds | B1 |
| binds | B2 |
| binds | B3 |
| binds | B4 |
| binds | B5 |
| binds | B6 |
| binds | B7 |
| binds | B8 |
| binds | B9 |
| binds | B10 |
| binds | B11 |
| binds | B12 |
| binds | B13 |
| binds | B14 |
| binds | B15 |
| binds | B16 |
| binds | B17 |
| binds | B18 |

target: GFP-fused huCB1-SMALP (human CB1 in styrene maleic acid lipoparticles) (human) (UniProt P21554); test: flow cytometry, yeast-displayed Fab

| binding | Binder |
| --- | --- |
| binds | B19 |
| binds | B20 |
| binds | B21 |
| binds | B22 |
| binds | B23 |
| binds | B24 |
| binds | B25 |
| binds | B26 |
| binds | B27 |
| binds | B28 |
